Reference: PubChem BioAssay AID1259254 (NCATS, 2017)
Purpose: 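Gene knock-downs that lead to re-replication, shown by excess G2 DNA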 (primary screen). System: human HCT116 colorectal cancer cells. Reagents: single siRNA against human genes. Duration: 3 days. Measured: 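Imaged Hoechst DNA stain sorts each cell into a cycle phase by DNA amount; per plate, G2 fraction set to 0% for non-targeting and 100% for GMNN siRNA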. Direction: G2 robust z-score and G2 cells, % of GMNN control: higher = more G2 cells, more excess DNA replication; raw share of cells in G2: higher = larger share of cells with G2 DNA content. Rule for the call: 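An siRNA counts as active if its G2 robust z-score lies at least 5 MADs above the screen median; here such calls match roughly 38% of GMNN control or more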.
In all, the deposit lists about 59,000 reagents; below is a part drawn at random. About 1,550 of all reagents (2.6%) were called active. 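G2 share is only a proxy for re-replication; each gene was hit by three separate siRNAs, and active genes were retested.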 Raw values vary from plate to plate and are shown uncorrected. The record does not give: the amount of reagent.

gene	PubChem SID	G2 robust z-score	G2 cells, % of GMNN control	raw share of cells in G2 (%)	Outcome
TPH2	SID160755888	1.88	16.2	11.9	inactive
TPH2	SID160755889	-1.27	-5.98	2.89	inactive
TPH2	SID160755890	0.245	4.69	6.25	inactive
EPHA1	SID160730763	-0.246	1.23	4.46	inactive
EPHA1	SID160760807	-0.686	-1.86	4.99	inactive
EPHA1	SID160760818	0.167	4.14	6.81	inactive
LINC01091	SID160733884	-0.771	-2.46	2.43	inactive
LINC01091	SID160769268	-0.000949	2.96	4.76	inactive
LINC01091	SID160769270	-0.0132	2.87	4.31	inactive
QPCT	SID160736993	3.47	27.4	18.6	inactive
QPCT	SID160736994	0.496	6.46	6.33	inactive
QPCT	SID160736995	0.229	4.58	5.49	inactive
ST13	SID160717421	1.47	13.3	8.75	inactive
ST13	SID160717422	1.13	10.9	9.95	inactive
ST13	SID160717423	-0.7	-1.96	2.4	inactive
MMP1	SID160777327	-0.0647	2.51	6.43	inactive
MMP1	SID160777328	5.46	41.4	19.6	active
MMP1	SID160777329	0.199	4.37	5.54	inactive
RAD21L1	SID160768652	-0.0767	2.43	4.56	inactive
RAD21L1	SID160768653	0.945	9.62	7.06	inactive
RAD21L1	SID160768654	2.16	18.2	9.3	inactive
ANO2	SID160745592	0.243	4.67	6.19	inactive
ANO2	SID160745593	-0.358	0.45	4.67	inactive
ANO2	SID160745594	-0.792	-2.6	2.2	inactive
CCDC88B	SID160762827	-0.054	2.59	5.79	inactive
CCDC88B	SID160762828	-0.147	1.93	6.88	inactive
CCDC88B	SID160762829	1.02	10.2	8.42	inactive
JAKMIP1	SID160759278	0.359	5.49	5.67	inactive
JAKMIP1	SID160759279	0.151	4.03	4.16	inactive
JAKMIP1	SID160759280	-0.442	-0.143	3.02	inactive
AP4B1	SID160729084	-0.392	0.208	3.6	inactive
AP4B1	SID160729085	-0.149	1.92	6.84	inactive
AP4B1	SID160729086	0.365	5.54	5.66	inactive
ZNF556	SID160749997	0.0552	3.36	3.98	inactive
ZNF556	SID160749998	1.21	11.5	11.1	inactive
ZNF556	SID160749999	-1.24	-5.74	1.83	inactive
AGER	SID160715520	-0.32	0.719	4.96	inactive
AGER	SID160715530	1.85	16	10.8	inactive
AGER	SID160715540	1.91	16.4	10.1	inactive
KDM7A	SID160750628	-0.621	-1.4	3.86	inactive
KDM7A	SID160750629	2.14	18	12.2	inactive
KDM7A	SID160750631	-0.502	-0.564	2.22	inactive
CLDN3	SID160747456	-0.179	1.71	4.14	inactive
CLDN3	SID160747467	-0.742	-2.25	3.79	inactive
CLDN3	SID160747478	0.0731	3.48	4.37	inactive
ZNF143	SID160719180	-0.736	-2.21	4.66	inactive
ZNF143	SID160719181	-0.893	-3.31	3.38	inactive
ZNF143	SID160719182	1.32	12.3	8.83	inactive
CFTR	SID160742173	0.0534	3.34	6.51	inactive
CFTR	SID160742183	-0.605	-1.29	4.35	inactive
CFTR	SID160742193	3.26	25.9	14.5	inactive
SLC13A3	SID160748067	-0.724	-2.12	3.6	inactive
SLC13A3	SID160748068	0.332	5.3	6.15	inactive
SLC13A3	SID160748069	1.41	12.9	11	inactive
SRRT	SID160741054	0.751	8.25	6.56	inactive
SRRT	SID160741055	5.8	43.8	22.7	active
SRRT	SID160741056	0.391	5.72	5.08	inactive
PCBP2	SID160713886	-0.0628	2.53	4.46	inactive
PCBP2	SID160713887	0.114	3.77	6.61	inactive
PCBP2	SID160713888	0.0725	3.48	4.37	inactive
TCF12-DT	SID160758279	2.73	22.2	11.3	inactive
TCF12-DT	SID160758280	6	45.2	16.9	active
TCF12-DT	SID160758281	-0.745	-2.28	2.27	inactive
MYO5B	SID160777711	0.689	7.81	5.77	inactive
MYO5B	SID160777712	-0.763	-2.4	4.43	inactive
MYO5B	SID160777714	-0.145	1.95	6.24	inactive
MYT1	SID160731266	0.283	4.96	4.91	inactive
MYT1	SID160777747	-0.133	2.03	4.27	inactive
MYT1	SID160777748	-0.739	-2.23	3.8	inactive
MC3R	SID160777022	4.74	36.4	18.8	inactive
MC3R	SID160777023	-0.684	-1.85	3.87	inactive
MC3R	SID160777024	1.41	12.9	7.23	inactive
TDP2	SID160741020	0.464	6.23	8.78	inactive
TDP2	SID160741021	-0.741	-2.24	3.41	inactive
TDP2	SID160741022	-0.771	-2.46	2.86	inactive
ALDH3B2	SID160716382	0.483	6.36	6.36	inactive
ALDH3B2	SID160716393	1.42	13	9.13	inactive
ALDH3B2	SID160716404	-1.28	-6.02	2.93	inactive
BDH1	SID160724563	0.222	4.53	6.26	inactive
BDH1	SID160724645	1.37	12.6	9.57	inactive
BDH1	SID160731676	-0.712	-2.05	3.23	inactive
KIF19	SID160756211	-0.651	-1.61	4.27	inactive
KIF19	SID160756212	-0.0397	2.69	5.5	inactive
KIF19	SID160756213	1.54	13.8	12.1	inactive
KIFAP3	SID160733531	0.0384	3.24	4.97	inactive
KIFAP3	SID160733540	2.24	18.7	13.9	inactive
KIFAP3	SID160733549	1.88	16.2	9.58	inactive
